Assay results published in PubChem BioAssay AID2685 (National Center for Advancing Translational Sciences (NCATS), 2010).
Some of the results follow. Further columns of the screen follow, without active or inactive calls. The list favours compounds with an active or inconclusive main result. Potencies come from curve fits of mixed quality, noted in brackets.

Experiment: qHTS Assay for Lipid Storage Modulators in Drosophila S3 Cells;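 as to cell number change: cells counted by Cell Tracker Red CMTPX staining in the red channel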
Conditions: BODIPY lipid droplet fluorescence, 18-24 h; for cell number change: measured here: cell count max response, cells fed with added oleic acid
In short: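 Laser-scanning cytometry quantifies lipid droplet accumulation (500–530 nm total intensity; droplet/cell object ratio) in oleic acid-fed (400 uM added) Drosophila S3 cells treated with a concentration series. 20 uM Triacsin C defined 100% inhibition.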

[1] = measured here: lipid fluorescence (Fed channel) AC50, cells fed with added oleic acid
[2] = measured here: cell number channel AC50, cells fed with added oleic acid

SMILES | cell number change [%] | AC50 [1] | AC50 [2]
C=Cn1c(C(=O)O)ccc1-c1ccc(OC)cc1 | -14.9 | 5.8 µM [falling, single point] | 
Clc1cccc(CSc2nnc([C@@H]3CCCN3)o2)c1 | 58.8 |  | 3.26 µM [rising, partial curve, poor fit]
COc1cccc(/C=C/C(=O)c2ccc(C)c([N+](=O)[O-])c2)c1 | -16.5 | 0.58 µM [rising, single point] | 
O=C(Nc1ccccn1)c1cc2ccccc2cc1O | 47.1 | 23.1 µM [falling, single point] | 
OC(CN1CC=C(/C=C/c2ccc(Br)cc2)CC1)c1ccccc1 (stereo not given) | -6.08 | 29.1 µM [falling, single point] | 
COC(=O)c1ccc(NC(=O)CNC(=O)C2CCCCC2)c(C)c1 | 186 | 0.58 µM [rising, single point] | 18.4 µM [rising, partial curve]
CCCN(CCC)C(=S)NC(=O)c1ccc(-c2ccccc2)cc1 | -74.2 | 29.1 µM [falling, single point] | 29.1 µM [falling, single point]
CCC(C)NC(=O)CCc1nc2ccccc2n1-c1ccccc1 (stereo not given) | 4.15 | 6.51 µM [falling, single point] | 6.51 µM [falling, single point]
O=C(CSc1nnc(-c2cccc(F)c2)o1)NC1CCCC1 | 17.3 | 29.1 µM [rising, single point] | 
COc1ccccc1CN1C(=O)CN(C2CCCCCC2)C(=O)C1c1ccc(F)cc1 (stereo not given) | -13.2 |  | 
COc1cc(Cc2nccc3cc(OC)c(OC)cc23)c(S(=O)(=O)O)cc1OC | 37.5 |  | 2.31 µM [rising, full curve]
Cc1ccc(OCCOCCNC(C)C)c(Br)c1 | 26.2 |  | 
Cc1ccc(C(=O)NCC(=O)N/N=C/c2cccs2)cc1[N+](=O)[O-] | -3.85 | 0.00461 µM [falling, full curve, poor fit] | 0.731 µM [falling, full curve, poor fit]
COc1cc(C(=O)N/N=C/c2ccsc2C)cc(OC)c1OC | -10.7 | 6.51 µM [falling, full curve] | 
CCOc1ccc(S(=O)(=O)N2CCN(CC(O)COc3cccc([N+](=O)[O-])c3)CC2)cc1 (stereo not given) | -25 |  | 
Cn1nc(-c2ccccc2)cc1NS(=O)(=O)c1ccccc1 | -5.32 | 0.184 µM [falling, full curve, poor fit] | 
O=C(NNc1cc(C(F)(F)F)nc2ccccc12)Nc1cccc(Cl)c1 | 2.08 |  | 
Cc1nc(-c2ccc(NC(=O)C3CCCCC3)cc2)cs1 | 15.2 |  | 
NS(=O)(=O)c1ccc2ccccc2c1 | 13.1 |  | 
O=C(CCc1ccccc1)Nc1nc2nc(-c3ccccc3)cc(=O)n2[nH]1 | -12.8 | 2.06 µM [rising, partial curve, poor fit] | 
CCOC(=O)N1CCN(C(=O)c2ccc([N+](=O)[O-])cc2Cl)CC1 |  | 5.8 µM [falling, full curve] | 

An excerpt of these results, as tab-separated lines.
SMILES	cell number change [%]	AC50 [1]	AC50 [2]
CCCN(CCC)C(=S)NC(=O)c1ccc(-c2ccccc2)cc1	-74.2	29.1 µM [falling, single point]	29.1 µM [falling, single point]
CCC(C)NC(=O)CCc1nc2ccccc2n1-c1ccccc1 (stereo not given)	4.15	6.51 µM [falling, single point]	6.51 µM [falling, single point]
O=C(CSc1nnc(-c2cccc(F)c2)o1)NC1CCCC1	17.3	29.1 µM [rising, single point]	

Later entries.

SMILES | cell number change [%] | AC50 [1] | AC50 [2]
CCc1ccc2[nH]c(=O)c(CN(CCN3CCCC3)C(=O)NC3CCCCC3)cc2c1 |  | 0.651 µM [rising, single point] | 
O=C(OCC#CCSc1nc2ccccc2o1)c1ccco1 |  | 0.651 µM [rising, single point] | 0.92 µM [rising, full curve]
Cc1ccc(CN2CCNC(=O)C2CC(=O)NCC(F)(F)F)o1 (stereo not given) | 3.82 | 3.66 µM [falling, single point] | 
CC1CCCC(N2CCN(C(=O)c3ccccc3F)CC2)C1 (stereo not given) | -25.4 |  | 
Cn1c(O)c(N=NC(=O)CNC(=O)/C=C/c2ccccc2)c2ccccc21 | -12.4 |  | 
O=C(COc1ccccc1C(=O)Nc1ccccc1)c1ccc(Br)cc1 | 115 |  | 20.6 µM [rising, partial curve]
CC(=O)N1N=C(c2ccccc2)CC1c1ccc(F)cc1 (stereo not given) | -10.6 | 0.731 µM [rising, full curve] | 
CCN(C(=O)C(C)Cl)c1ccccc1 (stereo not given) | -32.2 |  | 6.51 µM [rising, single point]
COc1ccc(S(=O)(=O)Cc2ccc(C(=O)N3CCN(Cc4ccccc4)CC3)o2)cc1 |  |  | 0.13 µM [falling, full curve, poor fit]
CC(=O)OC12CC3CC(C1)C(=NO)C(C3)C2 | -48.7 | 1.16 µM [falling, full curve] | 1.46 µM [falling, full curve]
Cc1[nH]nc2c1C(c1ccc(O)cc1)C1=C(CC(C)(C)CC1=O)N2 (stereo not given) | -22 | 3.66 µM [falling, partial curve, poor fit] | 
O=C1CCC(C(=O)Nc2cccc3ccccc23)N1 (stereo not given) | 17.5 | 4.11 µM [falling, single point] | 
Cc1cccc2cc(C#N)c(NCCCn3ccnc3)nc12 |  | 5.8 µM [rising, full curve] | 2.31 µM [rising, single point]
CN(CCCNC(=O)CCCOc1cc(=O)n(C)c2ccccc12)Cc1ccccc1 | 23.7 |  | 0.116 µM [rising, full curve, poor fit]
Cc1cccc(C(=O)N2CCC(=O)N(C(COCc3cccc(Cl)c3)Cc3ccccc3)CC2)c1 (stereo not given) | -0.323 |  | 
Cc1cc(C(=O)N/N=C\c2cc(C(C)(C)C)c(O)c(C(C)(C)C)c2)n[nH]1 | -2.92 | 7.31 µM [falling, single point] | 
CC1CCCN(C(=O)CSc2cnc3ccccc3n2)C1 (stereo not given) | 77.9 | 5.8 µM [rising, single point] | 7.31 µM [rising, partial curve]
C=CCc1c(C)nc(-c2ccccc2)nc1N/N=C/c1ccccc1 | -21.2 |  | 
Cc1cc(C)n2nc(SCC(N)=O)nc2n1 | -8.02 |  | 
CCCCCCCNC(=O)C1(CC2CC(c3ccc(Cl)cc3)=NO2)CCN(C(=O)c2ccccc2)CC1 (stereo not given) | 37.2 |  | 7.31 µM [rising, partial curve, poor fit]
Cn1ccsc1=NC(=O)c1ccc(CS(C)(=O)=O)cc1 | 8.7 |  | 
